# Values joined by “and” are separate entries in the source; they are usually repeats but may differ in a detail not shown here. Equal entries are not always repeated. Results filed as inconclusive are left out.
# System: CD8F1 mice, subcutaneous mammary adenocarcinoma, T/C%
# Assay: NCI In Vivo Anticancer Drug Screen. Data for tumor model Mammary Adenocarcinoma CD8F1 (subcutaneous) in CD8F1
# Details: vehicle: saline, higher = larger tumour
# Protocol: The antitumor activity of compounds was measured in mice bearing transplantable tumors. Survival or tumor size were measured and the results are expressed as the measurement made in the treated group (T) divided by the measurement made in the vehicle treated control group (C). The tumor model used in this assay is Mammary Adenocarcinoma CD8F1 (subcutaneous) in CD8F1
compound,measurement,setting,value
COc1cc2c(c(OC)c1OC)-c1ccc(OC)c(=O)cc1[C@@H](N)CC2,T/C,"endpoint: mean tumor weight (est.), dose: 12.0 mg/kg/injection, schedule: Q07DX003 (ip)",67 % of control
same,T/C,"endpoint: mean tumor weight (est.), dose: 24.0 mg/kg/injection, schedule: Q07DX003 (ip)",69 % of control
same,T/C,"endpoint: mean tumor weight, dose: 3.0 mg/kg/injection, schedule: Q01DX009 (ip)",59 % of control
same,T/C,"endpoint: mean tumor weight, dose: 6.0 mg/kg/injection, schedule: Q01DX009 (ip)",45 % of control
same,T/C,"endpoint: mean tumor weight, dose: 6.0 mg/kg/injection, schedule: Q07DX005 (ip)",727 % of control
same,T/C,"endpoint: mean tumor weight, dose: 12.0 mg/kg/injection, schedule: Q01DX009 (ip)",34 % of control
same,T/C,"endpoint: mean tumor weight, dose: 12.0 mg/kg/injection, schedule: Q07DX008 (ip)",156 % of control
same,T/C,"endpoint: mean tumor weight, dose: 24.0 mg/kg/injection, schedule: Q07DX005 (ip)",335 % of control and 689 % of control
same,T/C,"endpoint: mean tumor weight, dose: 24.0 mg/kg/injection, schedule: Q07DX008 (ip)",45 % of control
same,T/C,"endpoint: mean tumor weight, dose: 48.0 mg/kg/injection, schedule: Q07DX005 (ip)",359 % of control
same,T/C,"endpoint: median tumor weight (est.), dose: 5.0 mg/kg/injection, schedule: Q07DX005 (ip)",73 % of control and 92 % of control
same,T/C,"endpoint: median tumor weight (est.), dose: 40.0 mg/kg/injection, schedule: Q07DX005 (ip)",17 % of control
same,T/C,"endpoint: median tumor weight (est.), dose: 80.0 mg/kg/injection, schedule: Q07DX005 (ip)",8 % of control

# Reference: PubChem BioAssay AID220 (DTP/NCI, 2004)
